Laboratory results: patent US20110160444A1, “Cloning Transcription Factor Gene OsWOX20 That Regulates The Growth and Development of Monocotyledon's Root and Uses Thereof” (Huazhong Agricultural University, priority 2007, published 2011)
For at least one compound, name, drawing or mass did not settle the structure.

System: OsWOX20 gene expression
Test: Induced expression of rice endogenous gene OsWOX20 by realtime-PCR
Format: in vivo, rice variety Zhonghua No. 11
Settings: 10 μM, roots of seedlings soaked, samples 0-24 h, normalized to actin1
Description: The rice variety “Zhonghua No. 11” was used as the research material and treated with auxin, cytokinin, an auxin inhibitor and light at day ten after germination. Auxin treatment was done by soaking the roots of the seedlings with 10 μM IAA (indoleacetic acid) and 10 μM NAA (naphthaleneacetic acid) and taking samples at 0 h, 0.5 h, 1 h, 2 h, 3 h, 4 h, 6 h, 9 h, 12 h and 24 h. Cytokinin treatment was done by soaking the roots of the seedlings with 10 μM 6-BA (6-benzylaminopurine) and taking samples at 0 h, 0.5 h, 1 h, 2 h, 3 h, 4 h, 6 h, 9 h, 12 h and 24 h. Auxin inhibitor NPA (N-1-naphthylphthalamic acid) treatment was performed by soaking the roots of the seedlings in 1 μM NPA solution and taking samples at 0 h, 0.5 h, 1 h, 2 h, 3 h, 4 h, 6 h, 9 h, 12 h and 24 h. […] The reverse transcription product was subjected to quantitative PCR in a reaction system of 25 μl containing 1.5 μl of reverse transcription product, 0.25 μM of each of left and right primers and 12.5 μl of SYBR Green mixture (Applied Biosystems). The PCR reaction was performed on a 7500 real-time quantitative PCR amplifier (Applied Biosystems) according to the protocol described in the manufacturer's manual provided by Applied Biosystems, with rice actin1 gene as the internal reference of the reaction. […] The OsWOX20 primers used in the quantitative PCR were: […]

With `O=C(O)Cc1cccc2ccccc12` [NAA, naphthaleneacetic acid] the “Induction of expression of OsWOX20 gene” value was “can be induced”.
